Results on seven sequences are retold here after publication PMC10029841.

By UniProt entry, the sequences of proteins in these tests, tags left out. Residues count along the entry.
UniProt Q13308, 31-1070: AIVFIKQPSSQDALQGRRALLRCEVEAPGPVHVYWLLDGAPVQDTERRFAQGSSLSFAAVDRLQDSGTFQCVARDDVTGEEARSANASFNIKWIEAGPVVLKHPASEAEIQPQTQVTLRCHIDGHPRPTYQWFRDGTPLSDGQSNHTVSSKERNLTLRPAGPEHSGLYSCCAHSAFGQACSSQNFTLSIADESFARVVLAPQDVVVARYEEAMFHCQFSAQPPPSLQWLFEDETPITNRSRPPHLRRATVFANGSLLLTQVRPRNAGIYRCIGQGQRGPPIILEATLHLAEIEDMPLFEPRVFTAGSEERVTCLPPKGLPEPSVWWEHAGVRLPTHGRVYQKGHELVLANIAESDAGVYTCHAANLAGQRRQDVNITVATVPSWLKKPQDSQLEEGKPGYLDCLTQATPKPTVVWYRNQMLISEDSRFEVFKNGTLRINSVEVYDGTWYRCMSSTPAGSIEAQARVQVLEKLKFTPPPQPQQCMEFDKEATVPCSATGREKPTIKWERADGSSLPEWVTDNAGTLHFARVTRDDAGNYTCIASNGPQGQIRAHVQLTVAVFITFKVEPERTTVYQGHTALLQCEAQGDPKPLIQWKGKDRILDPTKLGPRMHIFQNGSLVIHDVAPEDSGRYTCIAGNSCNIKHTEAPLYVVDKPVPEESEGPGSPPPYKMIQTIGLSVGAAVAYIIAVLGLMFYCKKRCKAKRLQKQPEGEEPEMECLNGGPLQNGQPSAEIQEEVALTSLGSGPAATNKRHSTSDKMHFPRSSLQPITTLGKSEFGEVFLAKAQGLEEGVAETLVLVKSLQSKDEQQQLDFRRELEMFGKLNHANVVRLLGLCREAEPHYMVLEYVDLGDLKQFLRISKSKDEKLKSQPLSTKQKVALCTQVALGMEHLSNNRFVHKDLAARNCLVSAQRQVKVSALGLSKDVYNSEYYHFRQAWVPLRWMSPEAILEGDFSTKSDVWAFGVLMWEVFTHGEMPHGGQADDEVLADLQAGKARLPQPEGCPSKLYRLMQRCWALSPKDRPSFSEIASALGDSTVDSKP
UniProt P14151, 39-372: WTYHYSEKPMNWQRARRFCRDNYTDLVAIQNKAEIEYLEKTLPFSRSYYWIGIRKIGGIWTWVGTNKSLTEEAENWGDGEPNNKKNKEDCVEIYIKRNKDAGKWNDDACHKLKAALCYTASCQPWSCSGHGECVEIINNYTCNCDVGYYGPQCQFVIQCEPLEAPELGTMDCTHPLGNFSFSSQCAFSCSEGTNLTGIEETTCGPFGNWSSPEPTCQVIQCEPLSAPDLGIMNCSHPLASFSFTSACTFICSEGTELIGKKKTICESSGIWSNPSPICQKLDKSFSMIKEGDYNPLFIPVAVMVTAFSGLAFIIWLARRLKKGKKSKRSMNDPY

What all share (test): flow cytometry (whole cells)
The target in series [1] is transferrin receptor 1 on CCRF-CEM cells (UniProt P02786). Particulars: CCRF-CEM, 250 nM, DPBS with 4.5 g/L glucose, 5 mM MgCl2, 0.1 mg/mL yeast tRNA, 1 mg/mL BSA, 4 °C, 45 min, protein on the cell surface, folded or branched DNA.
Series [2] deals with transferrin receptor 1 on K562 cells (UniProt P02786). Particulars: K562, 250 nM, DPBS with 4.5 g/L glucose, 5 mM MgCl2, 0.1 mg/mL yeast tRNA, 1 mg/mL BSA, 4 °C, 45 min, protein on the cell surface, folded or branched DNA.
The target of series [3] is tyrosine-protein kinase 7 (PTK7) on CCRF-CEM cells (UniProt Q13308). Particulars: CCRF-CEM, 250 nM, DPBS with 4.5 g/L glucose, 5 mM MgCl2, 0.1 mg/mL yeast tRNA, 1 mg/mL BSA, 4 °C, 45 min, protein on the cell surface, folded or branched DNA.
Series [4] addresses CD62L on Jurkat cells (Homo sapiens) (UniProt P14151). As to conditions: Jurkat, 250 nM, DPBS with 4.5 g/L glucose, 5 mM MgCl2, 0.1 mg/mL yeast tRNA, 1 mg/mL BSA, 4 °C, 45 min, protein on the cell surface, folded or branched DNA.

Construct, isoform or probe ends are uncertain for at least one entry. Results from cells or extracts need not show a direct contact. At least one verdict was read from the data and is not stated in words by the source.

On to “ACTCATAGGGTTAGGGGCTGCTGGCCAGATACTCAGATGGTAGGGTTACTATGAGC [XQ-2d]”, for which the binding result in series [1] and in series [2] was “binds” each time. As to “ACTCATAGGGTTAGGGGCTGCTGGCCAGATACTCAGATGGTAGGGTTACTATGAGC / ACTCATAGGGTTAGGGGCTGCTGGCCAGATACTCAGATGGTAGGGTTACTATGAGC [XQ-2d~XQ-2d]”, the binding result in series [2] (stronger than XQ-2d, 5',3'-diazide joined to 5',3'-diDBCO strand by SPAAC, circular) is listed as “binds”. Turning to “ATCTAACTGCTGCGCCGCCGGGAAAATACTGTACGGTTAGA / ACTCATAGGGTTAGGGGCTGCTGGCCAGATACTCAGATGGTAGGGTTACTATGAGC [SXCBApt (Sgc8c~XQ-2d)]”, the binding result in series [1] (stronger than monovalent, dual target with PTK7, 5',3'-diazide Sgc8c joined to 5',3'-diDBCO XQ-2d by SPAAC, circular) is recorded as “binds”; in series [3] (stronger than monovalent, dual target with TfR1, 5',3'-diazide Sgc8c joined to 5',3'-diDBCO XQ-2d by SPAAC, circular) it was “binds”. With “ATCTAACTGCTGCGCCGCCGGGAAAATACTGTACGGTTAGA / ATCTAACTGCTGCGCCGCCGGGAAAATACTGTACGGTTAGA [Sgc8c~Sgc8c]”, the binding result in series [3] (stronger than Sgc8c, 5',3'-diazide joined to 5',3'-diDBCO strand by SPAAC, circular) is recorded as “binds”. For the sequence “ATCTAACTGCTGCGCCGCCGGGAAAATACTGTACGGTTAGA [Sgc8c]”, in series [3], the binding result is “binds”. Regarding “TAGCCAAGGTAACCAGTACAAGGTGCTAAACGTAATGGCTTCGGCTTAC / TAGCCAAGGTAACCAGTACAAGGTGCTAAACGTAATGGCTTCGGCTTAC [LD201t1~LD201t1]”, in series [4] (stronger than LD201t1, 5',3'-diazide joined to 5',3'-diDBCO strand by SPAAC, circular), the binding result is reported as “binds”.

“TAGCCAAGGTAACCAGTACAAGGTGCTAAACGTAATGGCTTCGGCTTAC [LD201t1]”: the binding result in series [4] is recorded as “binds”.
